{"sequences": {"note": "Sequences of proteins named here, by UniProt entry; tags and fusion partners are left off. A change or cut given only in a name is not applied to a line headed by its entry. Residues count along the entry.", "UniProt P22366": "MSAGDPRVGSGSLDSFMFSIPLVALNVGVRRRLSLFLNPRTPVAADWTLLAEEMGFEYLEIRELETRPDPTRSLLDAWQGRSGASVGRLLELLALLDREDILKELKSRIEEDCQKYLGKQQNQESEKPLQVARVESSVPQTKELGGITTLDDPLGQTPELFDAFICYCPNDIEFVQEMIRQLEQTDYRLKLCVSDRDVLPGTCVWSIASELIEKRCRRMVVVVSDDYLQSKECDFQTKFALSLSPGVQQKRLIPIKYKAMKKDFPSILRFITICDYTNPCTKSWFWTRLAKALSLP", "UniProt Q9QUK6, residues 26-835": "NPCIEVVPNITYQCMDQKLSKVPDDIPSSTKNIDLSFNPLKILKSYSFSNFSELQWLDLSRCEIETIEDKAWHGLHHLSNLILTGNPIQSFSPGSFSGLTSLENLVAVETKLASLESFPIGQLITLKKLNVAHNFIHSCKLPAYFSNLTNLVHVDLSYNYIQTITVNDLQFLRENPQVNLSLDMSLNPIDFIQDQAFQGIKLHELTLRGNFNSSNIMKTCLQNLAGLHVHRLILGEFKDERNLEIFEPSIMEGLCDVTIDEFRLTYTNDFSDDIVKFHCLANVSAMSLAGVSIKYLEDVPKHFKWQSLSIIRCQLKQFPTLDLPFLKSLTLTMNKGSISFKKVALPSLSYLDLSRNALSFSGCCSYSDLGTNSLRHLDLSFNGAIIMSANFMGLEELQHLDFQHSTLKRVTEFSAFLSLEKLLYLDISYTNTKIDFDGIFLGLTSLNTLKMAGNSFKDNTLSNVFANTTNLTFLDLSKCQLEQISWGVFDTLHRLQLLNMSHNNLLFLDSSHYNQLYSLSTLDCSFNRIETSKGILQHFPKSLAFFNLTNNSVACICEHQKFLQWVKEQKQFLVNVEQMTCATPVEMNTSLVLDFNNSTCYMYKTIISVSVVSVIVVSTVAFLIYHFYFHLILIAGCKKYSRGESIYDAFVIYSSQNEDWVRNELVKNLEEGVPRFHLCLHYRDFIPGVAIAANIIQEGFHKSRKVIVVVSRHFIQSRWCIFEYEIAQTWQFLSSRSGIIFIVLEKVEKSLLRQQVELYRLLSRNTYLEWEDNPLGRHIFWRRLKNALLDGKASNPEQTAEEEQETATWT"}, "source": "paper PMC8024564", "biological_target": "MyD88 (myeloid differentiation primary response gene 88), endogenous in J774A.1 macrophages (mouse (endogenous in J774A.1)) (UniProt P22366)", "test": "co-IP; J774A.1 cells stimulated with LPS (1 ug/ml); endogenous proteins immunoprecipitated with anti-MyD88 overnight at 4°C, protein A/G magnetic beads", "note": "Results are given in words; binding and its absence hold for the method and conditions named. Binding seen in cells or lysates may run through a third protein. Some binding calls cover weakened binding; strength is not graded here.", "data": [{"substance": "TLR4 (Toll-like receptor 4), endogenous in J774A.1 macrophages (from UniProt Q9QUK6 26-835)", "values": [{"measurement": "binding", "value": "binds"}]}]}
